From paper PMC10626543

Protein sequences, listed by entry. Tags and fused reporters are not part of them. Residues count along the entry.
UniProt P48678, residues 1-647: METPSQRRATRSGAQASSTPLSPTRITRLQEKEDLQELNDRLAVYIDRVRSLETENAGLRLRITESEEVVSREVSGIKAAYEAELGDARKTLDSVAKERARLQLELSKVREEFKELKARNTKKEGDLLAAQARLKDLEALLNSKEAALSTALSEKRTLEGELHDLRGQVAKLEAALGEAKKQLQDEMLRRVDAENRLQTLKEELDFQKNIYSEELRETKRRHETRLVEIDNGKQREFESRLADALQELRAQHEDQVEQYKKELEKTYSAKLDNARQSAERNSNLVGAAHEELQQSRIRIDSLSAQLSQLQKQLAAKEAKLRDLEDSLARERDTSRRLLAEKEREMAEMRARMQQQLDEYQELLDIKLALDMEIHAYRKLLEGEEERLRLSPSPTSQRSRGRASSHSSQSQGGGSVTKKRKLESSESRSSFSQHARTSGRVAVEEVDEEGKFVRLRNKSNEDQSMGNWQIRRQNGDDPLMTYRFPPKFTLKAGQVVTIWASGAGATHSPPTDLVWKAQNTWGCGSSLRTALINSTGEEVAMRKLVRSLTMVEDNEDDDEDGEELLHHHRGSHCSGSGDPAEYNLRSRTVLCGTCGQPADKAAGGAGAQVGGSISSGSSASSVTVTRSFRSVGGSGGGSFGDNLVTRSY

B1: MLIP (protein, UniProt Q5FW52 1-967)
chain: MTSCILAGSLETTPKVSPGDPEAKPLIFTFVPTLRRLPTHIQLADTSKFLVKIPEEPTDKSPETVNRFEYSDHMTFSSESKQERVQRILDYPSEVSGRNSQQKEFNTKEPQGMQKGDLFKAEYVFIVDSDGEDEATCRQGEQGPPGGPGNIATRPKSLAISSSLASDVVRPKVRGADLKTSSHPEIPHGIAPQQKHGLLISPTTSEQLAHKPPAFSFVSPTNQKTPPVPANVSGATVLREFHTRRLDVTGASEEETTTYFHSTAHDSPLSAWKGASTLVVSPSAQLSGSSLCGSNVTDHTRGLASEAQKKMSTSNVLNPKEDVRTCPAPASGASLTSPSASYIPVRIVMHSLSPSPKPLTSSSHGSLSTVCSQMSSSGSLSKSGLKSPVPSRLSLLTAILKSNPSHQRPLSPASCPTFSLNSLASSTLALDQKVKQTPPTSKKSLSSGSLTTGSTEQEHQASAASYQPCHLPFFSKTTPLSQAQPLSPLALASNSCASMDIEKIPGSTLRSNTTSPQPQTDTFSLADVPSVTPVLSPLSSSKGRKDGDSRTPEKNRNICIQPSTLASTPPVDESLALSSSGKGFHPSPALSDLIDRSKRACSQQHPGQRPSPSALPTPPVSRAASASHPHLGCSILPLQSSLTQTLQPSPSALRPSCGSATCPSRTQMPENTASNHSSRVSTPSLPVSLTRTKELFSPCALSMSAGPENKKPKQYKTMSSYKAFAAIPTNTLLLEQKALDEPARTESNSKASVLDLPVEFCFPAQLRQQTEELCATIDKVLQDSLSMHSSDSPSRPPQTMLGSETIKTPTTHPRAAGRETKYANLSSSSSTASESQLTKPGVIRPVPVKSKLLLRKDEEVYEPNPFSKYLEDNSGLFSEQDMAIPHKPVSLHPLYQSKLYPPAKSLLHPQTLSHADCLTPGSFSHLSSFSVRDEQEKSPTLLSQDTYNKLGHPMVTIPEHDTLDSKE
B2: Plcb4 (protein, UniProt Q91UZ1 1-1175)
chain: MAKPYEFNWQKEVPSFLQEGAVFDRYEEESFVFEPNCLFKVDEFGFFLTWKSEGKEGQVLECSLINSIRQAAIPKDPKILAALEAVGKSENDLEGRILCVCSGTDLVNIGFTYMVAENPEVTKQWVEGLRSIIHNFRANNVSPMTCLKKHWMKLAFLTNTTGKIPVRSITRTFASGKTEKVIFQALKELGLPSGKNDEIEPAAFTYEKFYELTQKICPRTDIEDLFKKINGDKTDYLTVDQLVSFLNEHQRDPRLNEILFPFYDAKRAMQIIEMYEPDEELKKKGLISSDGFCRYLMSDENAPVFLDRLELYQEMDHPLAHYFISSSHNTYLTGRQFGGKSSVEMYRQVLLAGCRCVELDCWDGKGEDQEPIITHGKAMCTDILFKDVIQAIKETAFVTSEYPVILSFENHCSKYQQYKMSKYCEDLFGDLLLKQALESHPLEPGRPLPSPNDLKRKILIKNKRLKPEVEKKQLEALKSMMEAGESAAPASILEDDNEEEIESADQEEEAHPEYKFGNELSADDYSHKEAVANSVKKGLVTVEDEQAWMASYKYVGATTNIHPYLSTMINYAQPVKFQGFHVAEERNIHYNMSSFNESVGLGYLKTHAIEFVNYNKRQMSRIYPKGGRVDSSNYMPQIFWNAGCQMVSLNYQTPDLAMQLNQGKFEYNGSCGYLLKPDFMRRPDRTFDPFSETPVDGVIAATCSVQVISGQFLSDKKIGTYVEVDMYGLPTDTIRKEFRTRMVMNNGLNPVYNEESFVFRKVILPDLAVLRIAVYDDNNKLIGQRILPLDGLQAGYRHISLRNEGNKPLSLPTIFCNIVLKTYVPDGFGDIVDALSDPKKFLSITEKRADQMRAMGIETSDIADVPSDTSKNDKKGKANPAKANVTPQSSSELRPTTTAALGSGQEAKKGIELIPQVRIEDLKQMKAYLKHLKKQQKELNSLKKKHAKEHSTMQKLHCTQVDKIVAQYDKEKSTHEKILEKAMKKKGGSNCLEIKKETEIKIQTLTTDHKSKVKEIVAQHTKEWSEMINTHSAEEQEIRDLHLSQQCELLRKLLINAHEQQTQQLKLSHDRESKEMRAHQAKISMENSKAISQDKSIKNKAERERRVRELNSSNTKKFLEERKRLAMKQSKEMDQLKKVQLEHLEFLEKQNEQAKEMQQMVKLEAEMDRRPATVV
B3: Ser/Thr-protein kinase TAO1 (protein, UniProt Q5F2E8 1-1001)
chain: MPSTNRAGSLKDPEIAELFFKEDPEKLFTDLREIGHGSFGAVYFARDVRTNEVVAIKKMSYSGKQSTEKWQDIIKEVKFLQRIKHPNSIEYKGCYLREHTAWLVMEYCLGSASDLLEVHKKPLQEVEIAAITHGALQGLAYLHSHTMIHRDIKAGNILLTEPGQVKLADFGSASMASPANSFVGTPYWMAPEVILAMDEGQYDGKVDVWSLGITCIELAERKPPLFNMNAMSALYHIAQNESPTLQSNEWSDYFRNFVDSCLQKIPQDRPTSEELLKHMFVLRERPETVLIDLIQRTKDAVRELDNLQYRKMKKLLFQEAHNGPAVEAQEEEEEQDHGVGRTGTVNSVGSNQSIPSMSISASSQSSSVNSLPDASDDKSELDMMEGDHTVMSNSSVIHLKPEEENYQEEGDPRTRASDPQSPPQVSRHKSHYRNREHFATIRTASLVTRQMQEHEQDSELREQMSGYKRMRRQHQKQLMTLENKLKAEMDEHRLRLDKDLETQRNNFAAEMEKLIKKHQAAMEKEAKVMANEEKKFQQHIQAQQKKELNSFLESQKREYKLRKEQLKEELNENQSTPKKEKQEWLSKQKENIQHFQAEEEANLLRRQRQYLELECRRFKRRMLLGRHNLEQDLVREELNKRQTQKDLEHAMLLRQHESMQELEFRHLNTIQKMRCELIRLQHQTELTNQLEYNKRRERELRRKHVMEVRQQPKSLKSKELQIKKQFQDTCKIQTRQYKALRNHLLETTPKSEHKAVLKRLKEEQTRKLAILAEQYDHSINEMLSTQALRLDEAQEAECQVLKMQLQQELELLNAYQSKIKMQAEAQHDRELRELEQRVSLRRALLEQKIEEEMLALQNERTERIRSLLERQAREIEAFDSESMRLGFSNMVLSNLSPEAFSHSYPGASSWSHNPTGGPGPHWGHPMGGTPQAWGHPMQGGPQPWGHPSGPMQGVPRGSSMGVRNSPQALRRTASGGRTEQGMSRSTSVTSQISNGSHMSYT
B4: Kank2 (protein, UniProt Q8BX02 1-843)
chain: MAQVLHVPAPFPGTPGQASPAAFPSKEPDPPYSVETPYGYRLDLDFLKYVDDIEKGHTLRRVAVQRRPRLGSLPRGPGSWWTSTESLCSDASGDSRHSAYSYCGRGFYPQYGALETRIGSNPRVERTLLDARRRLEDQAAAPSSGGLGSLTPSAAGSTSSLAGVGLLPPTPRSSGLSTPVAPSAGHLAHVREQMAGALRKLRQLEEQVKLIPVLQVKLSVLQEEKRQLTVQLKSQKFLGHPSGTRSRSELCLDLPEAPDDPAALETRSVGTWVRERDLGIPDGEAALVAKVAVLETQLKKALQELRAAQTQQVDLQPQAWPPPDTQVRVDTVRVVEGPREVEVAASTAAGALAQRAQSLEPYGTGLKALTTSGGPENTLVFRSHEVVETMCPLPTATTGNVHTAKKISITERSCTGAPRMTEPSSVNPRPAAASVVQPENPVPAAQDTTDKKPTRPAAASQDSQAADGAGRASLATKRKEDPADPEVNQRNLQFVGVNGGYESPSEDSSTAENSEHESTENEGPEPPARVLSPAECPQLRPPGAAVATTSLEGPQLSQESQRVPAPEVASGPDPEEEIRMDLSPDLISACLALEKYLENPNALTERELKVAYTTVLQEWLRLACRSDAHPELVRRHLVTFRAMSARLLDYVVNIADSNGNTALHYSVSHANFPVVRQLLDSGVCHVDKLNRAGYSPIMLTALATLKTQDDIETILQLFRLGNVNAKASQAGQTALMLAVSHGRVDVVRALLACEADVNIQDEDGSTALMCACEHGHKEITGLLLAVPSCDISLTDRDGSTALMVALDAGQSEIASMLYSRMNIKCSFAPMSDYESPASSSAEE
B5: Sun2 (protein, UniProt Q8BJS4 1-731)
chain: MSRRSQRLTRYSQDDNDGGSSSSGASSVAGSQGTVFKDSPLRTLKRKSSNMKHLSPAPQLGPSSDSHTSYYSESVVRESYIGSPRAVSLARSALLDDHLHSEPYWSGDLRGRRRRGTGGSESSKANGLTAESKASEDFFGSSSGYSSEDDLAGYTDSDQHSSGSRLRSAASRAGSFVWTLVTFPGRLFGLLYWWIGTTWYRLTTAASLLDVFVLTRSRHFSLNLKSFLWFLLLLLLLTGLTYGAWHFYPLGLQTLQPAVVSWWAAKESRKQPEVWESRDASQHFQAEQRVLSRVHSLERRLEALAADFSSNWQKEAIRLERLELRQGAAGHGGGSSLSHEDALSLLEGLVSRREATLKEDLRRDTVAHIQEELATLRAEHHQDSEDLFKKIVQASQESEARVQQLKTEWKSMTQEAFQESSVKELGRLEAQLASLRQELAALTLKQNSVADEVGLLPQKIQAARADVESQFPDWIRQFLLGDRGARSGLLQRDEMHAQLQELENKILTKMAEMQGKSAREAAASLGQILQKEGIVGVTEEQVHRIVKQALQRYSEDRIGMVDYALESGGASVISTRCSETYETKTALLSLFGIPLWYHSQSPRVILQPDVHPGNCWAFQGPQGFAVVRLSARIRPTAVTLEHVPKALSPNSTISSAPKDFAIFGFDEDLQQEGTLLGTFAYDQDGEPIQTFYFQASKMATYQVVELRILTNWGHPEYTCIYRFRVHGEPAH
B6: Mitotic spindle assembly checkpoint protein MAD1 (protein, UniProt Q9WTX8 1-717)
chain: MEDLGENTTVLSSLRSLNNFISQRMEGTSGLDVSTSASGSLQKQYEYHMQLEERAEQIRSKSYLIQVEREKMQMELSHKRARVELERAASTNARNYEREVDRNQELLARIRQLQECEATAEEKMREQLERHRLCKQNLDAVSQQLREQEDSLASAREMISSLKGRVSELQLSAMDQKVQVKRLESEKQELKEQLELQQRKWQEANQKIQELQASQDERAEHEQKIKDLEQKLCLQEQDAAVVKSMKSELMRMPRMERELKRLHEENTHLREMKETNGLLTEELEGLQRKLSRQEKMQEALVDLELEKEKLLAKLQSWENLDQTMGLNLRTPEDLSRFVVELQQRELTLKEKNNSITSSARGLEKVQQQLQDEVRQANAQLLEERKKRETHEALARRLQKRNALLTKERDGMRAILGSYDSELTQTEYSTQLTQRLWEAEDMVQKVHAHSSEMEAQLSQALEELGVQKQRADTLEMELKMLKAQTSSAESSFSFCKEEVDALRLKVEELEGERSRLEQEKQVLEMQMEKLTLQGDYNQSRTKVLHMSLNPISMARQRQHEDHDRLQEECERLRGLVHALERGGPIPADLEAASSLPSSKEVAELRKQVESAELKNQRLKEVFQTKIQEFRKVCYTLTGYQIDVTTESQYRLTSRYAEHQTDCLIFKATGPSGSKMQLLETEFSRSVPELIELHLLQQDSIPAFLSALTIELFSRQTSI
B7: Protein NDRG2 (N-myc downstream-regulated gene 2) (protein, UniProt Q9QYG0 1-371)
chain: MAELQEVQITEEKPLLPGQTPETAKEAELAARILLDQGQTHSVETPYGSVTFTVYGTPKPKRPAIFTYHDVGLNYKSCFQPLFRFGDMQEIIQNFVRVHVDAPGMEEGAPVFPLGYQYPSLDQLADMIPCILQYLNFSTIIGVGVGAGAYILSRYALNHPDTVEGLVLINIDPNAKGWMDWAAHKLTGLTSSIPDMILGHLFSQEELSGNSELIQKYRGIIQHAPNLENIELYWNSYNNRRDLNFERGGETTLKCPVMLVVGDQAPHEDAVVECNSKLDPTQTSFLKMADSGGQPQLTQPGKLTEAFKYFLQGMGYMASSCMTRLSRSRTASLTSAASIDGSRSRSRTLSQSSESGTLPSGPPGHTMEVSC

The binders below were run against native lamin A/C (mouse (endogenous in heart, skeletal muscle and brain)) (UniProt P48678) (assay: affinity purification with mass spectrometry; native lamin A/C immunoprecipitated with mAb 4C11 and Protein G Sepharose from sonicated heart lysates of old IL10-KO and control C57Bl/6 female mice (five each); 50 mM Tris pH 7.4, 300 mM NaCl, 0.3% Triton X-100, 4°C; TMT 10-plex).

binding, binds:
B1
B2
B3
B4
B5
B6
B7

These are yes or no findings as the source states them, for the method shown. In cells and extracts the contact can be indirect. A yes stands for co-enrichment or nearness to the bait. Other partners may have been found. Tags and fused reporters may be left off the sequences shown.
